We go through 1 sequence from US20130270124.

Negatives hold for the conditions tested. For some assays here: For at least one entry, the source does not settle the construct or the ends of the probe.

One series deals with HER2 (ErbB2) (UniProt P04626). Kind of series: binding assay. Particulars: 5'-amino modifier C6; impedance; PBS pH 4.0, 15 min releases HER2; rebinds at pH 6 (30 ng/ml); purified recombinant protein; protein details: R&D Systems; label: 5'-amine, amide-coupled to MPA on gold electrode; single-stranded DNA.
The test system of the next series is Immunoglobulin G (IgG). Kind of series: binding assay. The note with it: 5'-amino modifier C6; impedance; 20 ug/ml IgG in PBS, 30 min, Ret unchanged; purified native protein; protein details: Sigma-Aldrich; label: 5'-amine, amide-coupled to MPA on gold electrode; single-stranded DNA.

“CTTCTGCCCGCCTCCTTCCTGGGGCCTGGATACGGATTGGTAAGGATTAGTAGGGGGCATAGCTGGAGACGAGATAGGCGGACACT [HER2 NH2-aptamer]”: the binding result with HER2 (ErbB2) and in the series on Immunoglobulin G (IgG) was “no binding” in each case.
